{"source": "PubChem BioAssay AID1159584 (Peter MacCallum Cancer Centre, 2016)", "purpose": "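Genes whose loss is lethal only together with E-cadherin loss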 (primary screen)", "cell system": "human MCF10A breast epithelial cells, parental and CDH1-null", "reagent": "siRNA against human genes", "read-out": "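Cell viability by CellTiter-Glo ATP luminescence, each line scaled to the mean of mock wells across plates, then CDH1-null over parental ratio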", "direction": "CDH1-null / parental viability ratio: higher = CDH1-null cells survive relatively better than parental", "note": "The deposit covers about 18,000 reagents; this is a part drawn at random. Not all columns of the deposit are shown. Not stated in the record: the amount of reagent, the time to read-out."}
{"gene symbol": "SPATA45", "CDH1-null / parental viability ratio": 1}
{"gene symbol": "TBX22", "CDH1-null / parental viability ratio": 1.55}
{"gene symbol": "SUMO2", "CDH1-null / parental viability ratio": 1.24}
{"gene symbol": "STK31", "CDH1-null / parental viability ratio": 0.91}
{"gene symbol": "FUBP1", "CDH1-null / parental viability ratio": 0.9}
{"gene symbol": "MYL12B", "CDH1-null / parental viability ratio": 1.32}
{"gene symbol": "ZNF99", "CDH1-null / parental viability ratio": 0.89}
{"gene symbol": "FABP9", "CDH1-null / parental viability ratio": 1.13}
{"gene symbol": "CGAS", "CDH1-null / parental viability ratio": 1.06}
{"gene symbol": "OR14J1", "CDH1-null / parental viability ratio": 1.08}
{"gene symbol": "CLK2", "CDH1-null / parental viability ratio": 1.16}
{"gene symbol": "C1orf141", "CDH1-null / parental viability ratio": 0.88}
{"gene symbol": "RCVRN", "CDH1-null / parental viability ratio": 1.22}
{"gene symbol": "TTLL1", "CDH1-null / parental viability ratio": 0.86}
{"gene symbol": "SEC16A", "CDH1-null / parental viability ratio": 1.21}
{"gene symbol": "IFNA7", "CDH1-null / parental viability ratio": 1.11}
{"gene symbol": "OR2M3", "CDH1-null / parental viability ratio": 0.92}
{"gene symbol": "SLC16A10", "CDH1-null / parental viability ratio": 0.9}
{"gene symbol": "ZNF396", "CDH1-null / parental viability ratio": 1.12}
{"gene symbol": "AFG3L2", "CDH1-null / parental viability ratio": 1.31}
{"gene symbol": "TRPC5", "CDH1-null / parental viability ratio": 1.19}
{"gene symbol": "CELF4", "CDH1-null / parental viability ratio": 1.08}
{"gene symbol": "SRSF9", "CDH1-null / parental viability ratio": 1.14}
{"gene symbol": "ADH1C", "CDH1-null / parental viability ratio": 0.84}
{"gene symbol": "CDK7", "CDH1-null / parental viability ratio": 0.69}
{"gene symbol": "FHOD3", "CDH1-null / parental viability ratio": 1.19}
{"gene symbol": "NAA30", "CDH1-null / parental viability ratio": 0.77}
{"gene symbol": "TMEM25", "CDH1-null / parental viability ratio": 0.91}
{"gene symbol": "POLR2H", "CDH1-null / parental viability ratio": 1.18}
{"gene symbol": "PLD6", "CDH1-null / parental viability ratio": 1.28}
{"gene symbol": "TAPBP", "CDH1-null / parental viability ratio": 1.03}
{"gene symbol": "PKD1L1-AS1", "CDH1-null / parental viability ratio": 3.06}
{"gene symbol": "GSK3A", "CDH1-null / parental viability ratio": 0.87}
{"gene symbol": "CAPRIN2", "CDH1-null / parental viability ratio": 1}
{"gene symbol": "ACOT8", "CDH1-null / parental viability ratio": 0.94}
{"gene symbol": "AVIL", "CDH1-null / parental viability ratio": 0.84}
{"gene symbol": "OR5L2", "CDH1-null / parental viability ratio": 0.98}
{"gene symbol": "ACKR4", "CDH1-null / parental viability ratio": 1.43}
{"gene symbol": "KDELR2", "CDH1-null / parental viability ratio": 0.8}
{"gene symbol": "ABCC2", "CDH1-null / parental viability ratio": 0.98}
{"gene symbol": "TM4SF19", "CDH1-null / parental viability ratio": 0.88}
{"gene symbol": "THRA", "CDH1-null / parental viability ratio": 0.95}
{"gene symbol": "SLC46A3", "CDH1-null / parental viability ratio": 0.55}
{"gene symbol": "PSMD7", "CDH1-null / parental viability ratio": 1.21}
{"gene symbol": "SRSF8", "CDH1-null / parental viability ratio": 1.17}

Look-ups from above:
For “CDH1-null / parental viability ratio”, CELF4 is entered as 1.08
SLC46A3, CDH1-null / parental viability ratio → 0.55
Under “CDH1-null / parental viability ratio”, ADH1C is entered as 0.84
C1orf141, CDH1-null / parental viability ratio = 0.88
